For assay [1], the target named is CEACAM1-4L with a carboxyl terminus fused eYFP (CEACAM1-eYFP) (UniProt P13688). The experiment in a line: FRET or BRET; TIRF homoFRET (steady-state fluorescence anisotropy of eYFP, pixel-wise anisotropy map) on HeLa cells expressing the eYFP fusion; live cells, also after fixation, permeabilisation and nanobody labelling. Background: Bioluminescence resonance energy transfer reports proximity on the nanometre scale.

Sequences of proteins named here, by UniProt entry; tags and fusion partners are left off. A change or cut given only in a name is not applied to a line headed by its entry. A line that says so, or that is headed by a name, gives the form on record, which may keep a tag or linker. Residues count along the entry.
CEACAM1-4L with a carboxyl terminus fused eYFP (CEACAM1-eYFP) (P13688, residues 35-526): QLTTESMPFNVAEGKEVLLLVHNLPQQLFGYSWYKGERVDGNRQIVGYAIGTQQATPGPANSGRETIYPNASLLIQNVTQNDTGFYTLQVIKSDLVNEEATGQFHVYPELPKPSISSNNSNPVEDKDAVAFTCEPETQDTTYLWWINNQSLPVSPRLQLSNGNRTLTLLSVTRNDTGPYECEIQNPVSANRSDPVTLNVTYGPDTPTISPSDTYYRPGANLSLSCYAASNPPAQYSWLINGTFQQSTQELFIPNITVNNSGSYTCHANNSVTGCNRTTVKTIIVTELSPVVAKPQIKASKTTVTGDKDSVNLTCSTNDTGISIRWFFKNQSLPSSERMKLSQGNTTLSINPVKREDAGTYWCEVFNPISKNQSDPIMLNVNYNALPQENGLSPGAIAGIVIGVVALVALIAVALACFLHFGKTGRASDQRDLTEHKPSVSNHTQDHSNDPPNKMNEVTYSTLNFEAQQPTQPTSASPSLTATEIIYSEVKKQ
CEACAM1 mutant (R43S/Q44L) (P13688, form named): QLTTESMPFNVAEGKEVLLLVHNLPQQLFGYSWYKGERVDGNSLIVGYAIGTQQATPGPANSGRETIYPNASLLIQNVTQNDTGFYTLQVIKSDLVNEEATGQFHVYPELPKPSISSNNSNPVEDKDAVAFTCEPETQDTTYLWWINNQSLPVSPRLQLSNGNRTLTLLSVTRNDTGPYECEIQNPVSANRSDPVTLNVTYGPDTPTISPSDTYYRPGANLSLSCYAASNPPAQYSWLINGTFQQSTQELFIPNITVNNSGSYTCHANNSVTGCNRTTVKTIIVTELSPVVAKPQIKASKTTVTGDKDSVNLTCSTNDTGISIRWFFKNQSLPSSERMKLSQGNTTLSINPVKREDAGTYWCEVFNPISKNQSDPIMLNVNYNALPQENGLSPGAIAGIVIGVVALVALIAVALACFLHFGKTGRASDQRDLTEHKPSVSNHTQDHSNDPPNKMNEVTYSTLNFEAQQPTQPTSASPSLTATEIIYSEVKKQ

Assay [2] addresses CEACAM1 mutant (R43S/Q44L) (UniProt P13688). The description is as above.

No constants are given. Whether binding was seen depends on the method and setting. Binding seen in cells or lysates may run through a third protein. Some entries that bind do so weakly or less than the wild type.

For the substance “CEACAM1-4L with a carboxyl terminus fused eYFP (CEACAM1-eYFP) (from UniProt P13688-1 35-526) (receptor)”, the binding entry in assay [1] is recorded as “binds”. As for “CEACAM1 mutant (R43S/Q44L) (from UniProt P13688 35-526) (receptor)”, the binding entry in assay [2] was “binds”.

For the origin of these results see PMC9539790.
